Assay results published in US20150247841A1, “NEUROFURANS-INDICES OF OXIDANT STRESS” (The Trustees of the University of Pennsylvania, priority 2008, published 2015).

How the values were obtained:
[1] = Brain levels in Tg 2576 transgenic mouse model of AD vs littermate controls, LC/MS/MS; format: in vivo
Description: (ii) Tg 2576 transgenic mouse model of AD: Eight female Tg 2576 transgenic mice and 8 female littermate controls were anesthetized prior to sacrifice and removal of their brains at the age of 15 months. The brains were rapidly frozen in liquid nitrogen prior to placement at −80° C. Total lipids were extracted and purified as described above. Purified lipid extracts were analyzed by LC/MS/MS. [^2H4]8,12-iso-iPF2α-VI was added as internal standard.

[2] = In vivo oxidation: analysis of liver from CCl4-treated mice, LC/MS/MS; design: species or system mouse
Description: In Vivo Oxidation—Analysis of Liver from CCl4-Treated Mice: Treatment of mice with CCl4 was used to induce oxidant injury to the liver as previously described (Kadiiska et al, 2005, Radic Biol Med. 38(6):711-8). Three month-old C57/BL6 male mice were fasted overnight and then administered intraperitoneal (i.p.) injections of CCl4 (4 g/kg body weight). CCl4 was mixed with canola oil (1:1 by volume). Mice were anesthetized with CO2 prior to sacrifice at 0, 1, 2.5, 7.5, or 20 hours after CCl4 administration, their livers were removed and rapidly frozen in liquid nitrogen prior to storage at −80° C. Total lipids were extracted using a modified Folch procedure (Pratico et al., 1997, J Clin Invest. 100(8):2028-34. Erratum in: J Clin Invest 1997 Nov. 15; 100(10):2637). Briefly, frozen samples (0.1-0.5 g) were suspended in 5 mL ice-cold chloroform:methanol (2:1, v/v) with 0.005% (w/v) butylated hydroxytoluene to suppress oxidation. Samples were homogenized using a TissueLyzer™ (Qiagen, Valencia, Calif.). The lipid extracts were mixed vigorously with 2.0 mL NaCl (0.9%, w/v), and the phases separated by centrifugation. After the upper phase was decanted, samples were transferred to clean tubes, and the residual organic solvent was removed under a stream of nitrogen. Total lipids were dissolved in 0.5 mL methanol and stored at −80° C. Lipid extracts were then saponified by adding 0.5 mL of 2.7 N KOH in 0.5 mL methanol. The mixture was then sonicated and mixed vigorously until thoroughly suspended, then heated at 37° C. for 30 minutes. The pH was adjusted to 3.0 with 1.2 mL 1N HCl. Next, 1.0 ng of [^2H4]8,12-iso-iPF2α-VI was added as an internal standard. The samples were purified by solid phase extraction (SPE) using Strata™-X cartridges (Phenomenex, Torrance, Calif.). Purified lipid extracts were analyzed by liquid chromatography/tandem mass spectrometry (LC/MS/MS).
MS Analyses: Unknown compounds were characterized by stable isotope dilution gas chromatography/electron capture/negative ionization (GC/EC/NI)/MS as the pentafluorobenzyl (PFB) ester, trimethylsilyl (TMS) ether derivative as described (Fessel et al., 2002, Proc Natl Acad Sci USA. 99(26):16713-8). [^2H9]TMS ether derivatization was used to determine the number of the hydroxyl groups. Catalytic hydrogenation was used to reveal the number of double bonds. Compounds were also subjected to methoxime (MO) derivatization conditions to exclude the presence of ketone or aldehyde groups. Exposure to HCl excluded the possibility of epoxides. Fragmentation patterns of the unknown compounds were analyzed by electrospray (ES) MS/MS in the negative ion mode. [^2H4]8,12-iso-iPF2α-VI was used as an internal standard for quantitation.

[3] = In vitro oxidation of DHA with AAPH, LC/MS/MS
Description: In Vitro Oxidation of DHA: Docosahexaenoic acid (DHA), obtained from Cayman Chemical Co. (Ann Arbor, Mich.) was dissolved in ethanol and added to 5 mL PBS, pH 7.4, to a final concentration of 20 mM. 2,2′-azobis(2-amidinopropane)hydrochloride (AAPH; Sigma, St. Louis, Mo.) was used as an oxidant as described (Fessel et al., 2002, Proc Natl Acad Sci USA. 99(26):16713-8). Reactions were allowed to proceed at 37° C., and aliquots were removed for analysis at 0, 2, 4, 8, 12, 24, and 30 hours. Reactions were stopped by immersing the tube in an ice water bath. The aliquots were diluted by a factor of 100 with water. 1.5 ng of [^2H4]8,12-iso-iPF2α-VI was added as internal standard to 10 μL aliquots of the diluted samples. They were then acidified to pH<3 with formic acid and extracted with ethyl acetate. The samples were then purified by SPE before LC/MS/MS analysis. […]
MS Analyses: Unknown compounds were characterized by stable isotope dilution gas chromatography/electron capture/negative ionization (GC/EC/NI)/MS as the pentafluorobenzyl (PFB) ester, trimethylsilyl (TMS) ether derivative as described (Fessel et al., 2002, Proc Natl Acad Sci USA. 99(26):16713-8). […] Fragmentation patterns of the unknown compounds were analyzed by electrospray (ES) MS/MS in the negative ion mode. [^2H4]8,12-iso-iPF2α-VI was used as an internal standard for quantitation.

[4] = Brain levels in P47phox knockout mice vs wild type controls, LC/MS/MS; format: in vivo, mouse; conditions: 9 months
Description: Ten knockout mice (5 male and 5 female) and ten wild type controls (5 male and 5 female) were anesthetized prior to sacrifice and removal of the brain at the age of 9 months. The brains were rapidly frozen in liquid nitrogen prior to placement at −80° C. Total lipids were extracted from the brains using a modified Folch procedure. Purified lipid extracts were analyzed by LC/MS/MS. [^2H4]8,12-iso-iPF2α-VI was added as an internal standard.

[5] = Tg2576 mouse brain cortex, 15 months
[6] = non-transgenic littermate control brain cortex

| Substance | level in brain cortex [1, 5] [ng/g tissue weight] | difference in level in cerebellum, Tg 2576 vs control mice [1] | level in brain cortex [1, 6] [ng/g tissue weight] | mean level in mouse liver ([2]; 2.5 hours after CCl4 (4 g/kg i.p.)) [ng/g tissue weight] | mean level in mouse liver ([2]; before CCl4 injection) [ng/g tissue weight] | level of unmetabolized compound in mouse plasma and urine ([2]; mouse plasma and urine) | mean level in mouse liver ([2]; one hour after CCl4 (4 g/kg i.p.)) [ng/g] | effect of increasing oxygen tension on formation ([3]; in vitro oxidation of DHA, various oxygen tension) | maximum formation during oxidation of DHA ([3]; oxidation of DHA using AAPH, maximum by 6 hours) | mean level in brain cortex ([4]; p47phox knockout mice) [ng/g tissue weight] | mean level in brain cortex ([4]; wild type control mice) [ng/g] |
| --- | --- | --- | --- | --- | --- | --- | --- | --- | --- | --- | --- |
| neuroprostanes [nPs] | 14.3 | no significant difference | 10.5 |  |  |  |  |  |  |  |  |
| isoprostanes [iPs] | 7.1 | no significant difference | 5.4 |  |  |  |  |  |  |  |  |
| neurofurans [nFs] | 173.2 | no significant difference | 109.1 | 1330.6 | 141.3 | below the detectable level | 412.2 | did not detectably favor | roughly 15 ng/μg DHA | 99.3 | 156.2 |

Some compounds share one wording; it may come from a single statement.
